This passage reports binding results from PMC8610992.

Sequences of proteins named here, by UniProt entry; tags and fusion partners are left off.
UniProt Q8TEW0: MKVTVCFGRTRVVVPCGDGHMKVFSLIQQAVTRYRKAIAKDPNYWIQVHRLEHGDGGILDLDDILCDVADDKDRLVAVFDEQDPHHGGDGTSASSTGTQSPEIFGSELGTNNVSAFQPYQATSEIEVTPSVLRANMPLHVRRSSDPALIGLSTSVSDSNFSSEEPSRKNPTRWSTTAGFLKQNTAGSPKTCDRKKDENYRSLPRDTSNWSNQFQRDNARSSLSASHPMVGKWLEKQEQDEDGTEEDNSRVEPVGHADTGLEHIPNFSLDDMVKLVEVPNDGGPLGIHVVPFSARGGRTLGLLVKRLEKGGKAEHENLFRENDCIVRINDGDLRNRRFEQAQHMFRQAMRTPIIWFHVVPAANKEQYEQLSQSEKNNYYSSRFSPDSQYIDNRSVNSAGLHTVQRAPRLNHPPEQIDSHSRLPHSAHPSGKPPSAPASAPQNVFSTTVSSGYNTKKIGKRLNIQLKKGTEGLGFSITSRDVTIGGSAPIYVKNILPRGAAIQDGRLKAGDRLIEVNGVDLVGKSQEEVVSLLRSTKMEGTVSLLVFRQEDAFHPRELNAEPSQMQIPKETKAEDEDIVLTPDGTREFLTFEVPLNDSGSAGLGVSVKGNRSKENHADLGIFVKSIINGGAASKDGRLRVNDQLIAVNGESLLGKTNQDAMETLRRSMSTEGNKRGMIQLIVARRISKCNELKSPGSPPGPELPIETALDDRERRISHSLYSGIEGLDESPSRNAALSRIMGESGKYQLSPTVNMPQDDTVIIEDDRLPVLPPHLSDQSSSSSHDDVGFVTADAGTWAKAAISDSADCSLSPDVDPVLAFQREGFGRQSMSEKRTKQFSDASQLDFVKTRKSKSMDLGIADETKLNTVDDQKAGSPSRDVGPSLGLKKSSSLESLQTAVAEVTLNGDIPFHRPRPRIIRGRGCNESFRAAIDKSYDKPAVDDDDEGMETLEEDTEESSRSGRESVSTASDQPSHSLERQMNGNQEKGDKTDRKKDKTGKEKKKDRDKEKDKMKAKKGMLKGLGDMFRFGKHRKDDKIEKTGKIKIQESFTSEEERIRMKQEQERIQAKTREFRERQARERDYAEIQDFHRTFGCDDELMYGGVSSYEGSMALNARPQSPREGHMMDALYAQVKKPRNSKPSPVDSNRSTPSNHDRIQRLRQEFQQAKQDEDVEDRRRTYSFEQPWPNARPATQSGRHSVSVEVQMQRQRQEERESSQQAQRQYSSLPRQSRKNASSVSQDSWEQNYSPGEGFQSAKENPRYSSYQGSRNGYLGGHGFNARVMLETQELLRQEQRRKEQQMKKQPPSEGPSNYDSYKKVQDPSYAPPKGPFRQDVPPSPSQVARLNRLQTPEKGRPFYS

In experiment [1] the target is PARD3 (human (endogenous in Caco-2)) (UniProt Q8TEW0). Put plainly: co-IP; endogenous proteins of 2D and 3D Caco-2 cells; anti-PAR6B (Fig. 4B), antibody of Supplemental Fig. S3B not told; NP40 buffer (150 mM NaCl, 1% NP-40, 50 mM Tris-HCl pH 8.0).
Experiment [2] has as its target T1, myc-PRKCI (UniProt P41743).
T1 sequence: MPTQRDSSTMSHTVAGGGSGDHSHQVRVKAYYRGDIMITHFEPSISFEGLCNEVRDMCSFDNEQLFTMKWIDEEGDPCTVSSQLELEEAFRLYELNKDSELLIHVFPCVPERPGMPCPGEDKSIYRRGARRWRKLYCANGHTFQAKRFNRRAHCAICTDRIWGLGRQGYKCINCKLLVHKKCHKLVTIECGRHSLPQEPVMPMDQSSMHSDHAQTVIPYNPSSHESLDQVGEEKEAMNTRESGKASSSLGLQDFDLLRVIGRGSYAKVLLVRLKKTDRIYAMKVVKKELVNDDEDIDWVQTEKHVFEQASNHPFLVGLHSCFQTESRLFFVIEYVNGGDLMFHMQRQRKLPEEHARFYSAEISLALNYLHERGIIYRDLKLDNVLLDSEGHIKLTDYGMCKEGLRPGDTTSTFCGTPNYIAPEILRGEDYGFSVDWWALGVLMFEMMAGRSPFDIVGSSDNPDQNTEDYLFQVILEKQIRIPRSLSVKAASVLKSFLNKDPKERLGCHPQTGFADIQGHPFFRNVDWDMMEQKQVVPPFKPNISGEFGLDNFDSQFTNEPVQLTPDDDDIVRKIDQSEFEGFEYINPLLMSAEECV
Briefly: co-IP; anti-myc precipitation of myc-PRKCI from Caco-2 cysts, control (PAR6B also in KRAS^G12V-expressing cells), endogenous partners by blot.

The target of a further experiment is T2, myc-tagged PAR6B (UniProt Q9BYG5).
T2 sequence: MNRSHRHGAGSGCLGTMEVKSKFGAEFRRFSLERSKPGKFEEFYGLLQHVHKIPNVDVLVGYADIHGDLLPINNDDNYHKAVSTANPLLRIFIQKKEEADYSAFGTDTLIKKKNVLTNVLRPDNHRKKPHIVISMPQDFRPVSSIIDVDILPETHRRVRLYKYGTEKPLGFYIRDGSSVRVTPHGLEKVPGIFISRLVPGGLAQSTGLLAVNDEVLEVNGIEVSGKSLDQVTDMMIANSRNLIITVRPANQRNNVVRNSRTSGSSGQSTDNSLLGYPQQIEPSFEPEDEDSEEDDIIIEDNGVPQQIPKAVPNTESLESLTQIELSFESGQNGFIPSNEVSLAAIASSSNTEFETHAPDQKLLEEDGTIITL
Put plainly: co-IP; anti-myc precipitation after transient transfection in HEK293 cells, PTPN14 detected with anti-V5; NP40 buffer.

In experiment [3] the target is T1, myc-PRKCI. The experiment is described as above.

These are yes or no findings as the source states them, for the method shown. Binding seen in cells or lysates may run through a third protein. Some entries that bind do so weakly or less than the wild type. For some assays here: Where a sequence is shown, tags or fusion partners need not be part of it.

B1: PARD3B (protein, UniProt Q8TEW8 1-1205)
chain: MKVTVCFGRTGIVVPCKEGQLRVGELTQQALQRYLKTREKGPGYWVKIHHLEYTDGGILDPDDVLADVVEDKDKLIAVFEEQEPLHKIESPSGNPADRQSPDAFETEVAAQLAAFKPIGGEIEVTPSALKLGTPLLVRRSSDPVPGPPADTQPSASHPGGQSLKLVVPDSTQNLEDREVLNGVQTELLTSPRTKDTLSDMTRTVEISGEGGPLGIHVVPFFSSLSGRILGLFIRGIEDNSRSKREGLFHENECIVKINNVDLVDKTFAQAQDVFRQAMKSPSVLLHVLPPQNREQYEKSVIGSLNIFGNNDGVLKTKVPPPVHGKSGLKTANLTGTDSPETDASASLQQNKSPRVPRLGGKPSSPSLSPLMGFGSNKNAKKIKIDLKKGPEGLGFTVVTRDSSIHGPGPIFVKNILPKGAAIKDGRLQSGDRILEVNGRDVTGRTQEELVAMLRSTKQGETASLVIARQEGHFLPRELKGEPDCCALSLETSEQLTFEIPLNDSGSAGLGVSLKGNKSRETGTDLGIFIKSIIHGGAAFKDGRLRMNDQLIAVNGESLLGKSNHEAMETLRRSMSMEGNIRGMIQLVILRRPERPMEDPAECGAFSKPCFENCQNAVTTSRRNDNSILHPLGTCSPQDKQKGLLLPNDGWAESEVPPSPTPHSALGLGLEDYSHSSGVDSAVYFPDQHINFRSVTPARQPESINLKASKSMDLVPDESKVHSLAGQKSESPSKDFGPTLGLKKSSSLESLQTAVAEVRKNDLPFHRPRPHMVRGRGCNESFRAAIDKSYDGPEEIEADGLSDKSSHSGQGALNCESAPQGNSELEDMENKARKVKKTKEKEKKKEKGKLKVKEKKRKEENEDPERKIKKKGFGAMLRFGKKKEDKGGKAEQKGTLKHGGLREEELEKMKEERERIGAKHQELREKQARGLLDYATGAIGSVYDMDDDEMDPNYARVNHFREPCTSANVFRSPSPPRAGPFGYPRDGHPLSPERDHLEGLYAKVNKPYHPLVPADSGRPTGGSTDRIQKLRKEYYQARREGFPLYEDDEGRARPSEYDLLWVPGRGPDGNAHNLRFEGMERQYASLPRGGPADPVDYLPAAPRGLYKERELPYYPGAHPMHPPKGSYPRPTELRVADLRYPQHYPPPPAPQHKGPFRQDVPPSPPQHQRMPAYQETGRPGPRGGSPDQYPYRTQDSRQKNPMTAAV
Regarding B1, the binding entry in experiment [1] is on record as “no binding”.

B2: PAR6B (protein, UniProt Q9BYG5 1-372)
chain: MNRSHRHGAGSGCLGTMEVKSKFGAEFRRFSLERSKPGKFEEFYGLLQHVHKIPNVDVLVGYADIHGDLLPINNDDNYHKAVSTANPLLRIFIQKKEEADYSAFGTDTLIKKKNVLTNVLRPDNHRKKPHIVISMPQDFRPVSSIIDVDILPETHRRVRLYKYGTEKPLGFYIRDGSSVRVTPHGLEKVPGIFISRLVPGGLAQSTGLLAVNDEVLEVNGIEVSGKSLDQVTDMMIANSRNLIITVRPANQRNNVVRNSRTSGSSGQSTDNSLLGYPQQIEPSFEPEDEDSEEDDIIIEDNGVPQQIPKAVPNTESLESLTQIELSFESGQNGFIPSNEVSLAAIASSSNTEFETHAPDQKLLEEDGTIITL
Consider B2, for which the binding entry with myc-PRKCI [2] is on record as “binds”.

B3: PTPN14-V5 (protein, UniProt Q15678 1-1187)
chain: MPFGLKLRRTRRYNVLSKNCFVTRIRLLDSNVIECTLSVESTGQECLEAVAQRLELRETHYFGLWFLSKSQQARWVELEKPLKKHLDKFANEPLLFFGVMFYVPNVSWLQQEATRYQYYLQVKKDVLEGRLRCTLDQVIRLAGLAVQADFGDYNQFDSQDFLREYVLFPMDLALEEAVLEELTQKVAQEHKAHSGILPAEAELMYINEVERLDGFGQEIFPVKDNHGNCVHLGIFFMGIFVRNRIGRQAVIYRWNDMGNITHNKSTILVELINKEETALFHTDDIENAKYISRLFATRHKFYKQNKICTEQSNSPPPIRRQPTWSRSSLPRQQPYILPPVHVQCGEHYSETHTSQDSIFHGNEEALYCNSHNSLDLNYLNGTVTNGSVCSVHSVNSLNCSQSFIQASPVSSNLSIPGSDIMRADYIPSHRHSAIIVPSYRPTPDYETVMRQMKRGILHTDSQSQSLRNLNIINTHAYNQPEDLVYSQPEMRERHPYTVPYGPQGVYSNKLVSPSDQRNPKNNVVPSKPGASAISHTVSTPELANMQLQGSHNYSTAHMLKNYLFRPPPPYPRPRPATSTPDLASHRHKYVSGSSPDLVTRKVQLSVKTFQEDSSPVVHQSLQEVSEPLTATKHHGTVNKRHSLEVMNSMVRGMEAMTLKSLHLPMARRNTLREQGPPEEGSGSHEVPQLPQYHHKKTFSDATMLIHSSESEEEEEEAPESVPQIPMLREKMEYSAQLQAALARIPNKPPPEYPGPRKSVSNGALRQDQASLPPAMARARVLRHGPAKAISMSRTDPPAVNGASLGPSISEPDLTSVKERVKKEPVKERPVSEMFSLEDSIIEREMMIRNLEKQKMAGLEAQKRPLMLAALNGLSVARVSGREENRVDATRVPMDERFRTLKKKLEEGMVFTEYEQIPKKKANGIFSTAALPENAERSRIREVVPYEENRVELIPTKENNTGYINASHIKVVVGGAEWHYIATQGPLPHTCHDFWQMVWEQGVNVIAMVTAEEEGGRTKSHRYWPKLGSKHSSATYGKFKVTTKFRTDSVCYATTGLKVKHLLSGQERTVWHLQYTDWPDHGCPEDVQGFLSYLEEIQSVRRHTNSMLEGTKNRHPPIVVHCSAGVGRTGVLILSELMIYCLEHNEKVEVPMMLRLLREQRMFMIQTIAQYKFVYQVLIQFLQNSRLI
Regarding B3, the binding result in the experiment with myc-tagged PAR6B and with myc-PRKCI [3] was “binds” throughout.

B4: PTPN14 (protein, UniProt Q15678 1-1187)
chain: MPFGLKLRRTRRYNVLSKNCFVTRIRLLDSNVIECTLSVESTGQECLEAVAQRLELRETHYFGLWFLSKSQQARWVELEKPLKKHLDKFANEPLLFFGVMFYVPNVSWLQQEATRYQYYLQVKKDVLEGRLRCTLDQVIRLAGLAVQADFGDYNQFDSQDFLREYVLFPMDLALEEAVLEELTQKVAQEHKAHSGILPAEAELMYINEVERLDGFGQEIFPVKDNHGNCVHLGIFFMGIFVRNRIGRQAVIYRWNDMGNITHNKSTILVELINKEETALFHTDDIENAKYISRLFATRHKFYKQNKICTEQSNSPPPIRRQPTWSRSSLPRQQPYILPPVHVQCGEHYSETHTSQDSIFHGNEEALYCNSHNSLDLNYLNGTVTNGSVCSVHSVNSLNCSQSFIQASPVSSNLSIPGSDIMRADYIPSHRHSAIIVPSYRPTPDYETVMRQMKRGILHTDSQSQSLRNLNIINTHAYNQPEDLVYSQPEMRERHPYTVPYGPQGVYSNKLVSPSDQRNPKNNVVPSKPGASAISHTVSTPELANMQLQGSHNYSTAHMLKNYLFRPPPPYPRPRPATSTPDLASHRHKYVSGSSPDLVTRKVQLSVKTFQEDSSPVVHQSLQEVSEPLTATKHHGTVNKRHSLEVMNSMVRGMEAMTLKSLHLPMARRNTLREQGPPEEGSGSHEVPQLPQYHHKKTFSDATMLIHSSESEEEEEEAPESVPQIPMLREKMEYSAQLQAALARIPNKPPPEYPGPRKSVSNGALRQDQASLPPAMARARVLRHGPAKAISMSRTDPPAVNGASLGPSISEPDLTSVKERVKKEPVKERPVSEMFSLEDSIIEREMMIRNLEKQKMAGLEAQKRPLMLAALNGLSVARVSGREENRVDATRVPMDERFRTLKKKLEEGMVFTEYEQIPKKKANGIFSTAALPENAERSRIREVVPYEENRVELIPTKENNTGYINASHIKVVVGGAEWHYIATQGPLPHTCHDFWQMVWEQGVNVIAMVTAEEEGGRTKSHRYWPKLGSKHSSATYGKFKVTTKFRTDSVCYATTGLKVKHLLSGQERTVWHLQYTDWPDHGCPEDVQGFLSYLEEIQSVRRHTNSMLEGTKNRHPPIVVHCSAGVGRTGVLILSELMIYCLEHNEKVEVPMMLRLLREQRMFMIQTIAQYKFVYQVLIQFLQNSRLI
For the molecule B4, in the experiment with myc-PRKCI [2], the binding result is recorded as “binds”.
